Measured values taken from patent publication US20250333486A1, “Anti-HSP90 alpha antibody and uses thereof” (NATIONAL HEALTH RESEARCH INSTITUTES, priority 2021, published 2025).
Results are given in words; binding and its absence hold for the method and conditions named. Some results given as binding are weak or reduced against the parent protein; the word gives no strength. Sequences can lack the tags named with a protein.

Assays:
[1] = molecular target: T1, HSP90α peptide 235…244 (human); test: alanine-scanning peptide ELISA [d]
T1 sequence (peptide): AEEKEDKEEE

[2] = molecular target: T2, HSP90α peptide 251…260 (human); test: alanine-scanning peptide ELISA [d]
T2 sequence (peptide): ESEDKPEIED

[3] = molecular target: recombinant 732-amino acid full-length human HSP90α (rHSP90α; PeproTech) (human) (UniProt P07900); test: summary sentence of the example; method not given
[4] = molecular target: T1, HSP90α peptide 235…244 (human); test: peptide scanning ELISA, plates coated with 10-a.a. peptides
[5] = molecular target: T2, HSP90α peptide 251…260 (human); test: as above
[6] = molecular target: T1, HSP90α peptide 235…244 (human); test: peptide-scanning ELISA on plates coated with 10-a.a. peptides [c]
[7] = molecular target: T2, HSP90α peptide 251…260 (human); test: as above
[8] = molecular target: T3, …; test: as above
T3 sequence (peptide): DEAEEKEDKE

[9] = molecular target: T4, …; test: as above; remark: listed apart in the source
T4 sequence (peptide): EDKPEIEDVG

[10] = molecular target: T5, …; test: as above; remark: listed apart in the source
T5 sequence (peptide): EKESEDKPEI

[11] = molecular target: T6, …; test: as above; remark: listed apart in the source
T6 sequence (peptide): KEEKESEDKP

[12] = molecular target: recombinant 732-amino acid full-length human HSP90α (rHSP90α; PeproTech) (human) (UniProt P07900); test: SPR, Biacore T200: antibody captured on Protein A chip, rHSP90α injected [a]

Measured: binding

B1: HH01 anti-HSP90α antibody (Clone-2-hA) (antibody, V domains shown)
VH: EVQLVESGGGLVQPGGSLRLSCAASGFTFKTYAMNWVRQAPGQGLEWVARIRSKSRNYATYYADSVKDRFTISRDDSKNQFYLQMNNLRTEDTAVYYCVVGGSGFDYWGQGTTLTVSS
VL: DVVMTQTPLSLPVSLGDQASISCRSSQSIVHSNGNTYLEWYLQKPGQSPQLLIYKVSNRFSGVPDRFSGSGSGTDFTLTISSVEAEDLGVYYCFQGSHVPWTFGGGTKLEIK
binds: all assays above
